These are yes or no findings as the source states them, for the method shown. Binding can be weak; no strength is given. For some assays here: Sequences can lack the tags named with a protein. For some assays here: In cells and extracts the contact can be indirect.

Assay [1] deals with T1, cYFP-MeGBSSI (cassava (Manihot esculenta)) (UniProt Q43784).
T1 sequence: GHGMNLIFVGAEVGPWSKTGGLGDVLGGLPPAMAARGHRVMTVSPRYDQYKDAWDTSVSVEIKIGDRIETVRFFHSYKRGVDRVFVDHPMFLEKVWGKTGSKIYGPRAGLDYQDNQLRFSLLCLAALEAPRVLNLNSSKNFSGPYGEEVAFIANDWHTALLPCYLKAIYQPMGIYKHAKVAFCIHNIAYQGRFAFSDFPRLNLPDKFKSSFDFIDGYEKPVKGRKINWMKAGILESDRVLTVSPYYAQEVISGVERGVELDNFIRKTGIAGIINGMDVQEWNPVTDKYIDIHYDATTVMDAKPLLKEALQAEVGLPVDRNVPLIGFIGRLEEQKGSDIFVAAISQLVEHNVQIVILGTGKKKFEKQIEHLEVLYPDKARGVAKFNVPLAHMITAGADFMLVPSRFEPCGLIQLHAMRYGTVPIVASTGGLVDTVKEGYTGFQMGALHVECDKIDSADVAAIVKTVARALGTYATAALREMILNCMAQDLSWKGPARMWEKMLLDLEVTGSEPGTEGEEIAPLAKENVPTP
The assay is described as follows: split reporter.

Assay [2] has as its target T2, MeGBSSI (cassava granule-bound starch synthase I) (cassava, Manihot esculenta (endogenous in storage roots)) (UniProt Q43784).
T2 sequence: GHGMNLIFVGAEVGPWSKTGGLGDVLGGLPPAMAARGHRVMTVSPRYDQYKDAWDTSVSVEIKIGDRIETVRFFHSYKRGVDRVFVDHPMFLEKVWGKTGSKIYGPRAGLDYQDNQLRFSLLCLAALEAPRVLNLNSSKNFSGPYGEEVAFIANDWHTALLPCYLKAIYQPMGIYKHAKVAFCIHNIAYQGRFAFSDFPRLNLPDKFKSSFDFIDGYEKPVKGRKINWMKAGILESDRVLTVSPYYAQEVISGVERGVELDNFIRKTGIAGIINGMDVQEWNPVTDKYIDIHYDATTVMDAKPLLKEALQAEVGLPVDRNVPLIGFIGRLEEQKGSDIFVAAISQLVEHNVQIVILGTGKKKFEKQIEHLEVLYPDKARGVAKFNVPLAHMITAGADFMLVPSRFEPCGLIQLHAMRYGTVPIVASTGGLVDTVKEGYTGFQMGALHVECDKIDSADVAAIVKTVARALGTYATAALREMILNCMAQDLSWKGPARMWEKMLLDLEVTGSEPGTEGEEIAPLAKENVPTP
The assay is described as follows: co-IP.

In assay [3] the target is MeSSI, yeast two-hybrid fusion (cassava (Manihot esculenta)). The assay is described as follows: two-hybrid.
The target of assay [4] is MeISAI, yeast two-hybrid fusion (cassava (Manihot esculenta)). The assay is described as follows: two-hybrid.
Assay [5] addresses MeSSII (cassava soluble starch synthase II) (cassava, Manihot esculenta (endogenous in storage roots)). The assay is described as follows: co-IP.
Assay [6] concerns the target MeISAII (cassava isoamylase II) (cassava, Manihot esculenta (endogenous in storage roots)). The assay is described as follows: co-IP.
Assay [7] deals with MeSBEI (cassava starch branching enzyme I) (cassava, Manihot esculenta (endogenous in storage roots)). The assay is described as follows: co-IP.
Assay [8] addresses MeSSI (cassava soluble starch synthase I) (cassava, Manihot esculenta (endogenous in storage roots)). The assay is described as follows: co-IP.

For the molecule “nYFP-MeISAI (cassava (Manihot esculenta)) (enzyme)”, the binding entry in assay [1] was “binds”.
For “MeSSII (cassava soluble starch synthase II) (enzyme)”, the binding entry in assay [2] is given as “binds”.
With “MeSBEI (cassava starch branching enzyme I)”, in assay [2], the binding entry is reported as “binds”.
On the same count and under the same terms, then “MeSSI (cassava soluble starch synthase I) (enzyme)”, with “binds”.
Consider “nYFP-MeSSI (cassava (Manihot esculenta)) (enzyme)”, for which the binding entry in assay [1] was “binds”.

B1: MeGBSSI, yeast two-hybrid fusion (enzyme, UniProt Q43784 1-608)
chain: MATVIAAHFVSRSSHLSIHALETKANNLSHTGPWTQTITPNGLRSLNTMDKLQMKTQSKAVKKVSATGNGRPAAKIICGHGMNLIFVGAEVGPWSKTGGLGDVLGGLPPAMAARGHRVMTVSPRYDQYKDAWDTSVSVEIKIGDRIETVRFFHSYKRGVDRVFVDHPMFLEKVWGKTGSKIYGPRAGLDYQDNQLRFSLLCLAALEAPRVLNLNSSKNFSGPYGEEVAFIANDWHTALLPCYLKAIYQPMGIYKHAKVAFCIHNIAYQGRFAFSDFPRLNLPDKFKSSFDFIDGYEKPVKGRKINWMKAGILESDRVLTVSPYYAQEVISGVERGVELDNFIRKTGIAGIINGMDVQEWNPVTDKYIDIHYDATTVMDAKPLLKEALQAEVGLPVDRNVPLIGFIGRLEEQKGSDIFVAAISQLVEHNVQIVILGTGKKKFEKQIEHLEVLYPDKARGVAKFNVPLAHMITAGADFMLVPSRFEPCGLIQLHAMRYGTVPIVASTGGLVDTVKEGYTGFQMGALHVECDKIDSADVAAIVKTVARALGTYATAALREMILNCMAQDLSWKGPARMWEKMLLDLEVTGSEPGTEGEEIAPLAKENVPTP
As to B1, the binding entry in assay [3] and in assay [4] was “binds” each time.

B2: MeGBSSI (cassava granule-bound starch synthase I) (enzyme, UniProt Q43784 79-608)
chain: GHGMNLIFVGAEVGPWSKTGGLGDVLGGLPPAMAARGHRVMTVSPRYDQYKDAWDTSVSVEIKIGDRIETVRFFHSYKRGVDRVFVDHPMFLEKVWGKTGSKIYGPRAGLDYQDNQLRFSLLCLAALEAPRVLNLNSSKNFSGPYGEEVAFIANDWHTALLPCYLKAIYQPMGIYKHAKVAFCIHNIAYQGRFAFSDFPRLNLPDKFKSSFDFIDGYEKPVKGRKINWMKAGILESDRVLTVSPYYAQEVISGVERGVELDNFIRKTGIAGIINGMDVQEWNPVTDKYIDIHYDATTVMDAKPLLKEALQAEVGLPVDRNVPLIGFIGRLEEQKGSDIFVAAISQLVEHNVQIVILGTGKKKFEKQIEHLEVLYPDKARGVAKFNVPLAHMITAGADFMLVPSRFEPCGLIQLHAMRYGTVPIVASTGGLVDTVKEGYTGFQMGALHVECDKIDSADVAAIVKTVARALGTYATAALREMILNCMAQDLSWKGPARMWEKMLLDLEVTGSEPGTEGEEIAPLAKENVPTP
With B2, the binding result in assay [5], in assay [6], in assay [7] and in assay [8] was “binds” each time.

Source of the values: paper doi:10.1101/2020.03.25.006957.
